# According to the supplement of paper PMC12823440, “Inhibitors supercharge kinase turnover through native proteolytic circuits” (Nature, 2025):
# Sequences of proteins named here, by UniProt entry; tags and fusion partners are left off. A change or cut given only in a name is not applied to a line headed by its entry.
# UniProt P48729: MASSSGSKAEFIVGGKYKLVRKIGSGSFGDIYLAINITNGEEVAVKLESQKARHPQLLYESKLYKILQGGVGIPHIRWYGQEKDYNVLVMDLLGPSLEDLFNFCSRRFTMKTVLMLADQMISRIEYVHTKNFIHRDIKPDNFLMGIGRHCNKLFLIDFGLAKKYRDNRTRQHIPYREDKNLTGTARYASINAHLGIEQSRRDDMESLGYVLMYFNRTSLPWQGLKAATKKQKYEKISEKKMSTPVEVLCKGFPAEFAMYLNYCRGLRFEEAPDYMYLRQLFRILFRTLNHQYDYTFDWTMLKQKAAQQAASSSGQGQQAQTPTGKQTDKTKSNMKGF
# UniProt P48730: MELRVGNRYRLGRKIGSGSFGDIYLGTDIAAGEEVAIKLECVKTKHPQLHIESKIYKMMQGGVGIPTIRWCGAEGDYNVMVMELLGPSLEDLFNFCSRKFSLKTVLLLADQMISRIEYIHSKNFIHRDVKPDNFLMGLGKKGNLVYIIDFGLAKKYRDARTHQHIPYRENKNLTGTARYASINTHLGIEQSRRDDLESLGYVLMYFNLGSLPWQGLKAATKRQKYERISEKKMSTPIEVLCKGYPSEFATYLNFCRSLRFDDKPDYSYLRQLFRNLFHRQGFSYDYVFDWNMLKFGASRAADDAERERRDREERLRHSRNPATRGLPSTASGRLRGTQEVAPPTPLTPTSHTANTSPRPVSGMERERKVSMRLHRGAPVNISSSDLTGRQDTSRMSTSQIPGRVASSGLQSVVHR
# UniProt Q08345: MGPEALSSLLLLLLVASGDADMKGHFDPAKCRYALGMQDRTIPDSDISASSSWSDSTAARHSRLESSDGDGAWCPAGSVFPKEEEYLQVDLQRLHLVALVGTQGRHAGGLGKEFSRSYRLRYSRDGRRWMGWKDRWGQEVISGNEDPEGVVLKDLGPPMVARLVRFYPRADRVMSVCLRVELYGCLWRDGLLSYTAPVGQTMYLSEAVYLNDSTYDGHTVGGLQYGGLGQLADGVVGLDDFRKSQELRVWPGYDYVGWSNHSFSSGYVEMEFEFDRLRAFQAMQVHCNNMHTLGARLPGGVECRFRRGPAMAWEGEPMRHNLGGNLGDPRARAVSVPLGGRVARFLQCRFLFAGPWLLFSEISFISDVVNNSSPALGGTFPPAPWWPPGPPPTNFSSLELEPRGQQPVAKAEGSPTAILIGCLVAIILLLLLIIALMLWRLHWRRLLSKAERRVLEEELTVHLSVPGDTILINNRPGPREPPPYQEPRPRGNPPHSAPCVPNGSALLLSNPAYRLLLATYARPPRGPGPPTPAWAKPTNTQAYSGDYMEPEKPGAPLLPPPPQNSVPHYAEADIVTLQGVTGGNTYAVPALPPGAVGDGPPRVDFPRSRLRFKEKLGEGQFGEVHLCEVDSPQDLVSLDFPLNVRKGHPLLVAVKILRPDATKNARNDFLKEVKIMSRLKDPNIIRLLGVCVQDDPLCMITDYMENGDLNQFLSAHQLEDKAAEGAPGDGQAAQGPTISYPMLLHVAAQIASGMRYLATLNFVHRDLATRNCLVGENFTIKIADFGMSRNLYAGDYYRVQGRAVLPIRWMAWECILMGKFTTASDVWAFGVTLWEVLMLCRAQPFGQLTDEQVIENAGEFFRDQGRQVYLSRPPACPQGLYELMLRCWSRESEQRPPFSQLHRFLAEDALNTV
# UniProt Q9Y463, whole entry, looked up: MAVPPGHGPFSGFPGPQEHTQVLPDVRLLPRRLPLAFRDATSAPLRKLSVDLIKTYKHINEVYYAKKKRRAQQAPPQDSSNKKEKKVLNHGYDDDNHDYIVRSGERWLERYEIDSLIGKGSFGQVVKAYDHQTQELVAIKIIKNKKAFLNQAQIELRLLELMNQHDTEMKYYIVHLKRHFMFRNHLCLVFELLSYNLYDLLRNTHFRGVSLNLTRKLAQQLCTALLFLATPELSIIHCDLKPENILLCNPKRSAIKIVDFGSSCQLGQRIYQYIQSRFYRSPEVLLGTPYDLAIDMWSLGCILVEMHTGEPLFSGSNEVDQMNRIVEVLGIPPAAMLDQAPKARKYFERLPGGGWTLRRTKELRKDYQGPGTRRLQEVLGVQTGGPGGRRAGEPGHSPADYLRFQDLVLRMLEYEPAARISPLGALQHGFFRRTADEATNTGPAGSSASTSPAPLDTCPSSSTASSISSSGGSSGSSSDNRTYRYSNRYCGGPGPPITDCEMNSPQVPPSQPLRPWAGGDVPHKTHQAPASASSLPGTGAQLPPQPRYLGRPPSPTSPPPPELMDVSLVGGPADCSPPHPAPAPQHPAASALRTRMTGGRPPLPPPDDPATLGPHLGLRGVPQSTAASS
# UniProt Q92630: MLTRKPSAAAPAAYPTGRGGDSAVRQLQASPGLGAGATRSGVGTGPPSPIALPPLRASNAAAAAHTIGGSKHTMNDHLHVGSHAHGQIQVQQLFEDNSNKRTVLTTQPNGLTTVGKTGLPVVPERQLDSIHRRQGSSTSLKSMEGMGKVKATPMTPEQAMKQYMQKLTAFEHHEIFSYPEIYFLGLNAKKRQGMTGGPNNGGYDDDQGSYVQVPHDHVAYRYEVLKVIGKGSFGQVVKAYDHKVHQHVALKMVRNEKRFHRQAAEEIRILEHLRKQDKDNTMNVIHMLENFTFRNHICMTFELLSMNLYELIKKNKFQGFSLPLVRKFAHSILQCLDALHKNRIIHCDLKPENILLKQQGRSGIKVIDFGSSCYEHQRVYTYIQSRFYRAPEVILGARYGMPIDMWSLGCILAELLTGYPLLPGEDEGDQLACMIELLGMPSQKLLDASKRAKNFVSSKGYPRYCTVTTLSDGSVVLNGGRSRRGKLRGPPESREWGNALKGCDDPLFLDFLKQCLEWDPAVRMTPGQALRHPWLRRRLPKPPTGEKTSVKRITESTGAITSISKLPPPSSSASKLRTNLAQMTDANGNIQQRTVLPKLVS
# The other results are listed elsewhere or left out. Hit calls seldom repeat between salt and free forms of one compound.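 In K562 cells expressing nanoluciferase-fused kinases, luminescence was recorded at 4 h intervals between 2 and 18 h, normalized as percent of control with DMSO at 100% and a positive control at 0%. A significant (2 sigma) signal drop marks a time point as decreased. The authors' rule for a hit is not shown and takes in more than the number of time points.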
# Assays:
# Assay in all cases: number of time points (of 5) at which kinase-Nluc abundance scored as decreased, DMSO-normalised (count); higher = more persistent destabilization
# Conditions in all cases: K562; 2-18 h
# CSNK1A1 = CSNK1A1 (UniProt P48729)
# CSNK1D = CSNK1D (UniProt P48730)
# DDR1 = DDR1 (UniProt Q08345)
# DYRK1B = DYRK1B (UniProt Q9Y463)
# DYRK2 = DYRK2 (UniProt Q92630)
# EGFR = EGFR (UniProt P00533)
# EGFR_G719S = EGFR_G719S (UniProt P00533)
# EGFR_G719S_T790M = EGFR_G719S_T790M (UniProt P00533)
# EGFR_L718V = EGFR_L718V (UniProt P00533)
# EGFR_L858R = EGFR_L858R (UniProt P00533)
smiles,measurement,setting,value
COc1ccc(Nc2ncc(C(F)(F)F)c(NC3CC3)n2)cc1OC (10 µM),number of time points,CSNK1A1,0
same,number of time points,CSNK1D,0
same,number of time points,DDR1,1
same,number of time points,DYRK1B,0
same,number of time points,DYRK2,4
same,number of time points,EGFR,0
same,number of time points,EGFR_G719S,0
same,number of time points,EGFR_G719S_T790M,0
same,number of time points,EGFR_L718V,0
same,number of time points,EGFR_L858R,0
Cc1ccc(NC(=O)Nc2cc(C(F)(F)F)ccc2F)cc1Nc1ccc2c(c1)NC(=O)/C2=C\c1ccc[nH]1 (2.5 µM),number of time points,CSNK1A1,0
same,number of time points,CSNK1D,0
same,number of time points,DDR1,0
same,number of time points,DYRK1B,0
same,number of time points,DYRK2,0
same,number of time points,EGFR,0
same,number of time points,EGFR_G719S,0
same,number of time points,EGFR_G719S_T790M,0
same,number of time points,EGFR_L718V,0
same,number of time points,EGFR_L858R,0
CCN(CC)CCCC(C)Nc1nc(C)cc(Nc2ccc3nc(C)cc(N)c3c2)n1 (stereo not given) (10 µM),number of time points,CSNK1A1,0
same,number of time points,CSNK1D,0
same,number of time points,DDR1,0
same,number of time points,DYRK1B,0
same,number of time points,DYRK2,0
same,number of time points,EGFR,0
same,number of time points,EGFR_G719S,0
same,number of time points,EGFR_G719S_T790M,0
same,number of time points,EGFR_L718V,0
same,number of time points,EGFR_L858R,0
Nc1nccc(-c2c(-c3ccc(F)cc3)ncn2C2CCCCC2)n1 (10 µM),number of time points,CSNK1A1,0
same,number of time points,CSNK1D,0
same,number of time points,DDR1,0
same,number of time points,DYRK1B,0
same,number of time points,DYRK2,0
same,number of time points,EGFR,0
same,number of time points,EGFR_G719S,0
same,number of time points,EGFR_G719S_T790M,0
same,number of time points,EGFR_L718V,0
same,number of time points,EGFR_L858R,0
O=Nc1c(-c2c(O)[nH]c3cc(Br)ccc23)[nH]c2ccccc12 [GSK 3 Inhibitor IX] (2.5 µM),number of time points,CSNK1A1,0
same,number of time points,CSNK1D,0
same,number of time points,DDR1,0
same,number of time points,DYRK1B,0
same,number of time points,DYRK2,0
same,number of time points,EGFR,0
same,number of time points,EGFR_G719S,0
same,number of time points,EGFR_G719S_T790M,0
same,number of time points,EGFR_L718V,0
same,number of time points,EGFR_L858R,0
Cc1cc(CSc2ccccc2C(=O)NCCNc2ccc(C(F)(F)F)cc2[N+](=O)[O-])on1 (10 µM),number of time points,CSNK1A1,0
same,number of time points,CSNK1D,0
same,number of time points,DDR1,0
same,number of time points,DYRK1B,0
same,number of time points,DYRK2,0
same,number of time points,EGFR,0
same,number of time points,EGFR_G719S,0
same,number of time points,EGFR_G719S_T790M,0
same,number of time points,EGFR_L718V,0
same,number of time points,EGFR_L858R,0
Cc1cc(Nc2cc(N3CCN(C)CC3)nc(Nc3ccc([N+](=O)[O-])cc3)n2)n[nH]1 (2.5 µM),number of time points,CSNK1A1,0
same,number of time points,CSNK1D,0
same,number of time points,DDR1,0
same,number of time points,DYRK1B,0
same,number of time points,DYRK2,0
same,number of time points,EGFR,0
same,number of time points,EGFR_G719S,0
same,number of time points,EGFR_G719S_T790M,0
same,number of time points,EGFR_L718V,0
same,number of time points,EGFR_L858R,0
CNC(=O)c1cc2c(Oc3ccc(NC(=O)C4(C(=O)Nc5ccc(F)cc5)CC4)cc3)ccnc2cc1OC (2.5 µM),number of time points,CSNK1A1,1
same,number of time points,CSNK1D,2
same,number of time points,DDR1,1
same,number of time points,DYRK1B,1
same,number of time points,DYRK2,4
same,number of time points,EGFR,1
same,number of time points,EGFR_G719S,1
same,number of time points,EGFR_G719S_T790M,1
same,number of time points,EGFR_L718V,2
same,number of time points,EGFR_L858R,2
CN1CCN(c2cc(-c3ccncc3)c(-c3ccc4ccccc4c3)nn2)CC1 (10 µM),number of time points,CSNK1A1,0
same,number of time points,CSNK1D,0
same,number of time points,DDR1,0
same,number of time points,DYRK1B,0
same,number of time points,DYRK2,0
same,number of time points,EGFR,0
same,number of time points,EGFR_G719S,0
same,number of time points,EGFR_G719S_T790M,0
same,number of time points,EGFR_L718V,0
same,number of time points,EGFR_L858R,0
Cc1cc(-n2c(=O)ccc3c[nH]c4nccc-4c32)ccc1F (10 µM),number of time points,CSNK1A1,0
same,number of time points,CSNK1D,0
same,number of time points,DDR1,0
same,number of time points,DYRK1B,0
same,number of time points,DYRK2,1
same,number of time points,EGFR,0
same,number of time points,EGFR_G719S,0
same,number of time points,EGFR_G719S_T790M,0
same,number of time points,EGFR_L718V,0
same,number of time points,EGFR_L858R,0
CNC(=O)c1ccc2c(C(=Nc3cccc(CN(C)C)c3)c3ccccc3)c(O)[nH]c2c1 [MEK inhibitor] (10 µM),number of time points,CSNK1A1,0
same,number of time points,CSNK1D,0
same,number of time points,DDR1,0
same,number of time points,DYRK1B,0
same,number of time points,DYRK2,0
same,number of time points,EGFR,0
same,number of time points,EGFR_G719S,0
same,number of time points,EGFR_G719S_T790M,0
same,number of time points,EGFR_L718V,0
same,number of time points,EGFR_L858R,0
COc1cc(-c2cc(OP(=O)(O)O)cc(-c3cc(OC)c(OC)c(OC)c3)c2)cc(OC)c1OC [Stafia-1] (10 µM),number of time points,CSNK1A1,0
same,number of time points,CSNK1D,0
same,number of time points,DDR1,0
same,number of time points,DYRK1B,0
same,number of time points,DYRK2,0
same,number of time points,EGFR,0
same,number of time points,EGFR_G719S,0
same,number of time points,EGFR_G719S_T790M,0
same,number of time points,EGFR_L718V,0
same,number of time points,EGFR_L858R,0

# Random excerpt: six records from the list.
smiles,measurement,setting,value
COc1ccc(Nc2ncc(C(F)(F)F)c(NC3CC3)n2)cc1OC (10 µM),number of time points,EGFR_G719S_T790M,0
same,number of time points,EGFR_L718V,0
Cc1ccc(NC(=O)Nc2cc(C(F)(F)F)ccc2F)cc1Nc1ccc2c(c1)NC(=O)/C2=C\c1ccc[nH]1 (2.5 µM),number of time points,EGFR,0
COc1cc(-c2cc(OP(=O)(O)O)cc(-c3cc(OC)c(OC)c(OC)c3)c2)cc(OC)c1OC [Stafia-1] (10 µM),number of time points,CSNK1D,0
Cc1cc(CSc2ccccc2C(=O)NCCNc2ccc(C(F)(F)F)cc2[N+](=O)[O-])on1 (10 µM),number of time points,EGFR_L858R,0
Nc1nccc(-c2c(-c3ccc(F)cc3)ncn2C2CCCCC2)n1 (10 µM),number of time points,EGFR_G719S,0
